# Measurements taken from PubChem BioAssay AID504467 (National Center for Advancing Translational Sciences (NCATS), 2011).
# About 7,700 (2.3%) of roughly 330,000 compounds were called active. This list was built around the results that the source calls inconclusive (neither active nor inactive); the mix of calls is not that of the screen. Calls follow the shape of the dose curve; as a rule, active = well fitted inhibition curve with a large enough effect; inconclusive = small, poorly fitted or top-dose-only effect, or effect the other way; inactive = flat fitted curve, though single readings scatter. Potencies of inconclusive entries are doubtful fits and often do not repeat.
# Assay: qHTS screen for small molecules that inhibit ELG1-dependent DNA repair in human embryonic kidney (HEK293T) cells expressing luciferase-tagged ELG1; also: nearly all actives have a fitted effect of over 55% in size
# Conditions: HEK293T ELG1-luciferase reporter, luminescence, 16 h, DNA damage induced by 5-fluorouridine; activity change, negative = inhibition: at 46.1 µM (top of the series)
# Method in brief: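 Overnight (16 hr) co-exposure of 2,000 cells/well to 5-fluorouridine and compound at 37 °C preceded detection. Luciferase was quantified via ONE-Glo luminescence; loss of signal denotes inhibition.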
# % is scaled to controls: 0 for no effect and ±100 for the full control effect; potency is read from the fitted curve at half-maximal effect.
SMILES,Potency,"activity change, negative = inhibition"
COc1cccc(NC(=S)N2CCN(C/C=C/c3ccccc3)CC2)c1,"inconclusive: 10.3 µM [inhibitor, partial curve, poor fit]",
O=C(/C=C/Nc1ccc([N+](=O)[O-])cc1Br)c1cccc2ccccc12,"inconclusive: 16.4 µM [activator, partial curve]",
CC(C)CCNC(=O)C(c1ccncc1)N(Cc1cccs1)C(=O)Cn1nnc(-c2ccc(F)cc2)n1 (centres undefined),"inconclusive: 0.13 µM [inhibitor, full curve, poor fit]",
CC(C)(C)C(=O)OCc1nc(-c2ccc(C(F)(F)F)cc2)cs1,,inactive: -15.3%
CCOc1cccc(-c2c(C(=O)N/N=C/c3ccoc3)nnn2-c2nonc2N)c1,,inactive: 11.1%
Cc1c(N=C2NC(=O)/C(=C/c3ccc(O)cc3)S2)c(=O)n(-c2ccccc2)n1C,,inactive: 12.3%
Cc1noc(C)c1COc1ccc(C(=O)OCC(=O)Nc2c(C)n(C)n(-c3ccccc3)c2=O)cc1,"inconclusive: 18.3 µM [activator, single point]",
CCOc1ccc(CCNC(=O)Nc2ccccc2C)cc1OCC,,inactive: 1.69%
[O-][n+]1c2c(nc3c1-c1ccccc1C3O)CCCC2 (centres undefined),"inconclusive: 13 µM [activator, partial curve, poor fit]",
COc1ccc(OC)c(CN(CCN2CCOCC2)C(=O)Nc2ccccc2)c1,"inconclusive: 18.4 µM [activator, single point]",
CCOc1ccc(Nc2nc(Cc3nnc(SCC(=O)N(CC)CC)n3C)cs2)cc1,"inconclusive: 18.4 µM [inhibitor, partial curve, poor fit]",
CC(=O)Nc1ccc(S(=O)(=O)NNC(=O)c2ccc([N+](=O)[O-])cc2)cc1,,inactive: 17%
CCOC(=O)N1CCN(C(=O)NC23CC4CC(CC(C4)C2)C3)CC1,,inactive: 3.32%
Clc1ccc(-n2nnnc2-c2cnc3ccccc3c2-c2ccccc2)cc1,"inconclusive: 29.1 µM [inhibitor, single point]",
COc1cccc(/C=C/c2ccncc2)c1OC,"inconclusive: 23.1 µM [activator, single point]",
COc1ccc(N(C)S(=O)(=O)c2cccc(C(=O)Nc3nc(C)cs3)c2)cc1,"inconclusive: 29.1 µM [inhibitor, single point]",
CC(C)C1=Nc2cccc3cccc(c23)N1,,inactive: -1.47%
CC1(C)CC(C)(c2ccc(O)cc2O)N(c2ccc3ccccc3c2)C(=S)N1 (centres undefined),"inconclusive: 29.1 µM [inhibitor, single point]",
O=C1CCC(C(=O)OCc2nnc(-c3ccc(Br)cc3)o2)=NN1,"inconclusive: 16.4 µM [activator, single point]",
N/C(=N\OC(=O)c1ccc(Cl)cc1[N+](=O)[O-])c1ccccn1,"inconclusive: 12.6 µM [activator, partial curve]",
COC(=O)c1cnn(-c2ccc(F)cc2F)c1/C=N/NC(=S)NC(C)(C)C,"inconclusive: 23.1 µM [inhibitor, single point]",
COc1ccc(Nc2nc(C(=O)N3CCc4cc(OC)c(OC)cc4C3)cs2)cc1,active: 16.4 µM,

SMILES,Potency,"activity change, negative = inhibition"
O=C(N/N=C/c1ccsc1)c1cc(O)cc(O)c1,"inconclusive: 32.6 µM [activator, partial curve, poor fit]",
Cc1nn(Cc2ccccc2)c(C)c1NC(=O)c1ccc([N+](=O)[O-])cc1[N+](=O)[O-],,inactive: -0.174%
O=C(c1cc2ccccc2oc1=O)N(Cc1ccccc1)Cc1ccc2c(c1)OCO2,"inconclusive: 20.6 µM [inhibitor, single point]",
O=C(Nc1cccc(F)c1)c1cc(S(=O)(=O)NCCC2=CCCCC2)ccc1F,"inconclusive: 2.59 µM [inhibitor, full curve]",
Cc1nnc(NC(=O)c2csc3c2CCC(C)C3)s1 (centres undefined),"inconclusive: 20.6 µM [inhibitor, single point]",
Cc1nnc(SCC(=O)NC(C)(C)C)n1NCc1ccc(N(C)C)cc1,,inactive: 0.237%
CCn1c(O)c(N=NC(=O)c2cccc(S(=O)(=O)N3CCCCC3)c2)c2ccccc21,active: 23.1 µM,
O=C(/C=C/c1ccc(F)cc1)NCc1ccco1,"inconclusive: 16.4 µM [activator, partial curve]",
COc1ccc(CCNC(=O)c2ccc(N(C)S(=O)(=O)c3ccc(C)cc3)cc2)cc1OC,"inconclusive: 32.6 µM [inhibitor, partial curve, poor fit]",
O=C(NCC1CCCO1)c1cc2c([nH]c3ccccc32)c(-c2cccc(Br)c2)n1 (centres undefined),"inconclusive: 23.1 µM [inhibitor, single point]",
O=C(NCc1ccccn1)C(=O)N/N=C/c1ccc2c(c1)OCO2,,inactive: -10.4%
COC(=O)[C@H](C)[C@H]1C[C@]1(C)[C@H](NC(=O)OCc1ccccc1)c1ccccc1,"inconclusive: 23.1 µM [inhibitor, single point]",
O=C(Nc1ccc([N+](=O)[O-])c(NC(=O)C2CCCO2)c1)C1CCCO1 (centres undefined),,inactive: -2.88%
CC(C)NC1=C(Cl)C(=O)c2ccccc2C1=O,,inactive: 0.879%
COc1ccc(Nc2ccc(C(N)=O)cc2[N+](=O)[O-])cc1,"inconclusive: 18.3 µM [inhibitor, single point]",
COc1ccc(N(Cc2ccc(N(C)C)cc2)C(=O)c2ccc(S(C)(=O)=O)cc2)cc1,,inactive: 8.66%
COc1ccc(OCC(=O)Nc2ccc(NC(=O)c3cccs3)c(OC)c2)cc1,"inconclusive: 23.1 µM [activator, partial curve, poor fit]",
O=C(Nc1ccc([N+](=O)[O-])cc1Br)c1cc2ccccc2nc1Cl,"inconclusive: 32.6 µM [activator, partial curve, poor fit]",
CN1C(=O)NC(c2ccc(Cl)cc2)C2=C1CC(C)(C)CC2=O (centres undefined),,inactive: -0.0329%
CC1(C(=O)OCC(=O)Nc2ccc(C(N)=O)cc2)CC1(Cl)Cl (centres undefined),"inconclusive: 23.1 µM [activator, single point]",
O=C(CCl)Nc1ccc(-c2ccccc2)cc1,"inconclusive: 16.4 µM [inhibitor, single point]",
COc1cccc(/C=C2\Oc3cc(OCC(=O)N4CCC[C@H]4C(=O)O)ccc3C2=O)c1,,inactive: 26.8%

# Among those listed so far, these contain an aryl thioether with sulfur outside any ring.
SMILES,Potency,"activity change, negative = inhibition"
CCOc1ccc(Nc2nc(Cc3nnc(SCC(=O)N(CC)CC)n3C)cs2)cc1,"inconclusive: 18.4 µM [inhibitor, partial curve, poor fit]",
Cc1nnc(SCC(=O)NC(C)(C)C)n1NCc1ccc(N(C)C)cc1,,inactive: 0.237%
